Results taken from patent US20260146103A1 (J DAVID GLADSTONE INSTITUTES A TESTAMENTARY TRUST …, published 2026).

Protein sequences, listed by entry. Tags and fused reporters are not part of them. Lines headed by an entry give the natural chain unless they say otherwise; changes in a name come on top.
UniProt P02671: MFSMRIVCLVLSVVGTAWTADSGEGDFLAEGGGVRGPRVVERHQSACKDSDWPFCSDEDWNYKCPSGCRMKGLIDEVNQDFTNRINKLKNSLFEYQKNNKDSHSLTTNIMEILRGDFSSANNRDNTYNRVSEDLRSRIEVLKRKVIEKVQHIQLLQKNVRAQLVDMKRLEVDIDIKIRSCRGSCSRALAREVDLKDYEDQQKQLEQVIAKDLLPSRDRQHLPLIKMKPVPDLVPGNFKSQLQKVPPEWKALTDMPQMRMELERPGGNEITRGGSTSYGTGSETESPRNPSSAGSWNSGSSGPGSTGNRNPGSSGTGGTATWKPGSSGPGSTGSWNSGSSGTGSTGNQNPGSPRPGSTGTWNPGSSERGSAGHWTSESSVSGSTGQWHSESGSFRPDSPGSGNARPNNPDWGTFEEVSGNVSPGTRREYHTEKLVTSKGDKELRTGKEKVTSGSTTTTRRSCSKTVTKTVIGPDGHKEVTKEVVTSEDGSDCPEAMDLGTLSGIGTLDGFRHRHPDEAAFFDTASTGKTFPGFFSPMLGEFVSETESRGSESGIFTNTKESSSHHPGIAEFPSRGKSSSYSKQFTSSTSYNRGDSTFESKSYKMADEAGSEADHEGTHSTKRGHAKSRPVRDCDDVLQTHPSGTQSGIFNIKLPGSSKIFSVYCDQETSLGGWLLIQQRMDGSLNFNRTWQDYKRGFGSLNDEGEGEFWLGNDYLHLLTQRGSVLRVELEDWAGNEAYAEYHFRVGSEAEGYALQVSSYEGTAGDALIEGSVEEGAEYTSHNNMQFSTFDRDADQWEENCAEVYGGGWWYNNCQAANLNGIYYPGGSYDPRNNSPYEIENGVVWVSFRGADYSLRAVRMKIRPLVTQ

Biological target: fibrinogen (UniProt P02671)
Assay: immunoprecipitation from human MS brain myelin homogenate on Protein A/G plates, mass spectrometry

B1: Antibody G (45-C1C3) (antibody, V domains shown)
VH: EVQLVESGGGAVQPGRSLRLSCAASGVSFSNIGMHWVRQAPGKGLEWVALISSDGRHTHYADSVKGRFTISRDNSENTLYLQINGLRADDTAVYYCAKGLDTRARYMGKFYTFDYWGQGTLVTVSS
VL: DIQLTQSPSSLSASVGDRVTITCRASQNIGVNLNWYQQRPGKGPKLLVSSTFSLQSGVPSRFSASGAGTNFTLTISSLQPEDYVTYYCQQSYSSPFTFGPGTKVDIK
notes: also called mAb G; Ab G
B1 was tested, and the binding was “binds”.

These are yes or no findings as the source states them, for the method shown. Binding seen in cells or lysates may run through a third protein. Here binding means that the protein was enriched with, or labelled near, the bait; the list need not be complete.
